These are yes or no findings as the source states them, for the method shown. Tags and fused reporters may be left off the sequences shown.
Assays:
[1] = molecular target: T1, MORC1 (yeast two-hybrid fusion) (Arabidopsis thaliana) (UniProt Q84WV6); test: two-hybrid; GAL4-AD (pGADT7) and GAL4-BD (pGBKT7) fusions in yeast strain PJ694a; growth on SD-TLH, 20 mM 3-AT
T1 sequence: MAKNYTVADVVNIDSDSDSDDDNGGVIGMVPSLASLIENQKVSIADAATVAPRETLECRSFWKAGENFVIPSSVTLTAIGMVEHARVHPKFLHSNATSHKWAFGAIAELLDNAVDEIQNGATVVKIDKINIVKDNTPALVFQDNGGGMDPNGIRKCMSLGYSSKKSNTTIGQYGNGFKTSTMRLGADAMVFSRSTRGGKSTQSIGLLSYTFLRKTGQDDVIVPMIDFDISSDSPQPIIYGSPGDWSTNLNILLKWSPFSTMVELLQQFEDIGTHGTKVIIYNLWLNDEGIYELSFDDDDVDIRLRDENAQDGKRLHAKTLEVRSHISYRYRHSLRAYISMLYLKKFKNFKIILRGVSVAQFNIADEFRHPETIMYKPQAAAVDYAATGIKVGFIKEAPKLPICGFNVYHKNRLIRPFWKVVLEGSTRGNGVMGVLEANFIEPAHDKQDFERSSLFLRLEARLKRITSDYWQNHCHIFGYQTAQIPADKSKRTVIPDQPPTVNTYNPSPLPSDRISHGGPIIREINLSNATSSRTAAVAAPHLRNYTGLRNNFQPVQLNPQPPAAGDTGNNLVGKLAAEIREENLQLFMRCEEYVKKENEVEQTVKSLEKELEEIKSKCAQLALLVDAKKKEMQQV

[2] = molecular target: T2, MORC6 (yeast two-hybrid fusion) (Arabidopsis thaliana) (UniProt Q56Y74); test: as above
T2 sequence: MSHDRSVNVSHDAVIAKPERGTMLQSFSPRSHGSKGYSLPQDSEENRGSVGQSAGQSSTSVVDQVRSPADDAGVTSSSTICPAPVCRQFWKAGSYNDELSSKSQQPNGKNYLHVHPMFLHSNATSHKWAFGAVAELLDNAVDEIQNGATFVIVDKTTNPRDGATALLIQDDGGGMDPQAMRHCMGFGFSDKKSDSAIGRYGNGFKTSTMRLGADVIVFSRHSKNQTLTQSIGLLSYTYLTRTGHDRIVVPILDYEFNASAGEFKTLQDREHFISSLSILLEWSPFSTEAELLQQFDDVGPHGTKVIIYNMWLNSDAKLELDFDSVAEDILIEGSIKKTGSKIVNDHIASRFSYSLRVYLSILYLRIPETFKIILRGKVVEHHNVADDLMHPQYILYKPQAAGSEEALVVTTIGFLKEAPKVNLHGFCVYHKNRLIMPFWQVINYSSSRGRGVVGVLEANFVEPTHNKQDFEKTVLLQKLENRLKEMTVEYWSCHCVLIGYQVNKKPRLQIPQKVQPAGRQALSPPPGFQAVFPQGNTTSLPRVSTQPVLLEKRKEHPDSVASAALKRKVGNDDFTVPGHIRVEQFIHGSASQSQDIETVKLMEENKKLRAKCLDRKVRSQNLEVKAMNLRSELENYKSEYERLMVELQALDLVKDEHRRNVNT

| binding [1] | binding [2] | Substance |
| --- | --- | --- |
| no binding |  | SUVH2-c (truncated SUVH2 without its C-terminal SET domain, yeast two-hybrid fusion) (Arabidopsis thaliana) (domain or fragment) |
| no binding | no binding | SUVH9-c (truncated SUVH9 without its SET domain, yeast two-hybrid fusion) (Arabidopsis thaliana) (domain or fragment) |
